The text below walks through data of publication PMC2362126.

By UniProt entry, the sequences of proteins in these tests, tags left out. Where a name states a change or a piece, a line headed by the entry shows the natural chain unless it says otherwise.
UniProt P34149: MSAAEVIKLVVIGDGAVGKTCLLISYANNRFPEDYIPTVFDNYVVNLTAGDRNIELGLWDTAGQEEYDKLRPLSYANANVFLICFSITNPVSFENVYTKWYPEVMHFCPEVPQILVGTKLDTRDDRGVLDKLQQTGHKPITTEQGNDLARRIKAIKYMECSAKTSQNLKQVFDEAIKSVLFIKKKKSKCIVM
UniProt P34148: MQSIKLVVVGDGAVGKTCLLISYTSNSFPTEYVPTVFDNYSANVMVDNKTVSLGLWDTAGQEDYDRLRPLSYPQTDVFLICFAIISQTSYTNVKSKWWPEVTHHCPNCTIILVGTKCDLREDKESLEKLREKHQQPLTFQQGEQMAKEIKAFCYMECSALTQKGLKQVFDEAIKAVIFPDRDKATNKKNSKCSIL
UniProt Q9GPS3: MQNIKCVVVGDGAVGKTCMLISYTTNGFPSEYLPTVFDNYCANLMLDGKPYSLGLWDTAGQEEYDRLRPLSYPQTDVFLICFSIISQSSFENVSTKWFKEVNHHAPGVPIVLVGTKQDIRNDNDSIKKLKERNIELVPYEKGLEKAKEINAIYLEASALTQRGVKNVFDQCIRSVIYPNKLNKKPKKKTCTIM
UniProt P61586: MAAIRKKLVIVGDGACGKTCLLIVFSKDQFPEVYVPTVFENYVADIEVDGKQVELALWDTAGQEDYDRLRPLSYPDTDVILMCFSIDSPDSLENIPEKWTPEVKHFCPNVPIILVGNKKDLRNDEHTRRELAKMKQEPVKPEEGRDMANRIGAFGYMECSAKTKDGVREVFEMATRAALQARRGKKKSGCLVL
UniProt Q23862: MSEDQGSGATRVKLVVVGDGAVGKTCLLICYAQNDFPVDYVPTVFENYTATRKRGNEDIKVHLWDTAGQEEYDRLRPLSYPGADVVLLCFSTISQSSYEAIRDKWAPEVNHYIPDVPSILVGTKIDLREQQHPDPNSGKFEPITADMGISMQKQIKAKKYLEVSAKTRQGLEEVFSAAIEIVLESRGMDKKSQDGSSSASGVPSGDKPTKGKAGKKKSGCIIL

Assay [1] has as its target GST-tagged D. discoideum RacC in insect cell membranes (D. discoideum) (UniProt P34149). In words: translocation assay (solubilisation of membrane-bound Rho GTPase by soluble RhoGDI); membranes of insect or HeLa cells expressing Rho GTPases (1.0 mg protein) rotated 15 h at 4°C with 40 μM His-tagged RhoGDI in 20 mM Tris-HCl pH 7.5, 1 mM EDTA, 1 mM dithiotreitol, 0.1 mM PMSF; 100,000 x g, supernatants blotted; only the binder purified.

Assay [2] deals with GST-tagged D. discoideum RacB in insect cell membranes (D. discoideum) (UniProt P34148). The description is as above.
The target in assay [3] is GST-tagged D. discoideum RacF2 in insect cell membranes (D. discoideum) (UniProt Q9GPS3). The description is as above.
The target of assay [4] is untagged human RhoA in insect cell membranes (human) (UniProt P61586). The assay is described as above.
Assay [5] addresses GST-tagged D. discoideum RacE in insect cell membranes (D. discoideum) (UniProt Q23862). The assay is described as above.
The target in assay [6] is Tuber borchii Cdc42 (TbCdc42), two-hybrid fusion in pGBKT7 (Tuber borchii). In words: two-hybrid; Matchmaker system (Clontech), Y190 yeast; RhoGDIs in pGADT7 or pACT2, Rho GTPases in pGBKT7 or pAS2-1; growth on -Trp/-Leu/-His/+3AT and colony-lift β-galactosidase assays.

Results are given in words; binding and its absence hold for the method and conditions named. For part of these data: A result given as binding can be weak or reduced; the word gives no strength. Tags and fused reporters may be left off the sequences shown.

B1: recombinant His-tagged bovine RhoGDI (protein, UniProt P19803 1-204)
chain: MAEQEPTAEQLAQIAAENEEDEHSVNYKPPAQKSIQEIQELDKDDESLRKYKEALLGRVAVSADPNVPNVVVTRLTLVCSTAPGPLELDLTGDLESFKKQSFVLKEGVEYRIKISFRVNREIVSGMKYIQHTYRKGVKIDKTDYMVGSYGPRAEEYEFLTPMEEAPKGMLARGSYNIKSRFTDDDRTDHLSWEWNLTIKKEWKD
With B1, the binding result in assay [1] is recorded as “binds”; in assay [2], “binds”; in assay [3], “no binding (tested: 40 μM)”; in assay [4], “binds”; in assay [5] it was “binds weakly”.

B2: human LyGDI (RhoGDI2), two-hybrid fusion in pACT2 (protein, UniProt P52566 1-201)
chain: MTEKAPEPHVEEDDDDELDSKLNYKPPPQKSLKELQEMDKDDESLIKYKKTLLGDGPVVTDPKAPNVVVTRLTLVCESAPGPITMDLTGDLEALKKETIVLKEGSEYRVKIHFKVNRDIVSGLKYVQHTYRTGVKVDKATFMVGSYGPRPEEYEFLTPVEEAPKGMLARGTYHNKSFFTDDDKQDHLSWEWNLSIKKEWTE
B2: in assay [6], the binding result is recorded as “binds”.
